{"source": "ChEMBL document CHEMBL1121388", "about": "“Analgesic narcotic antagonists. 2. 8-Alkymorphinan-6-ones” (J Med Chem, 1980)", "test_system": "Mus musculus", "assay": "The effective dose was measured by using mouse writhing assay after the compound administered subcutaneously.", "type": "functional", "conditions": "sc", "procedure,_shortened": "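Analgesia in the mouse writhing test induced by acetic acid, with compound given subcutaneously. Salts were dissolved in distilled H₂O; free bases were dissolved by dropwise 1 N HCl and then diluted.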", "data": [{"smiles": "CN1CC[C@]23c4c5ccc(O)c4O[C@H]2[C@@H](O)C=C[C@H]3[C@H]1C5", "note": "[MORPHINE]", "values": [{"measurement": "ED50", "result": 2.1, "unit": "µmol/kg"}]}]}
